Laboratory results: PubChem BioAssay AID1259405 (NCATS, 2018)
Test: 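Knock-downs that lift recombinant protein yield in hamster ovary cells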 (primary screen). Cells: Chinese hamster CHO-K1 ovary cells with stable secreted eGFP expression. Reagent: single siRNA against mouse genes, 0.8 pmol siRNA per well (2 µl of 400 nM stock). Time to read-out: 3 days. Read-out: 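Percent of the per-plate non-targeting control median for intracellular GFP per well by laser scanning cytometry and for cell viability by ATP luminescence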. Scale: GFP, % of control: higher = more GFP per well, higher productivity. Call rule: 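Called active when intracellular GFP, relative to negative control, is at or above 120%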.
This is a random part of about 50,000 deposited reagents. In the full data, about 4,000 (8%) are marked active. 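Mouse siRNA library applied to hamster cells; one well for each siRNA.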 The numbers tell different reagents against one gene apart. Not all columns of the deposit are shown.

GFP, % of control, by gene and reagent
Hhatl: #1 85.1 inactive; #2 111 inactive; #3 71.8 inactive
Atp12a: #1 112 inactive; #2 64.6 inactive; #3 76.1 inactive
Or13c3: #1 81.6 inactive; #2 114 inactive; #3 81.9 inactive
Psmb1: #1 19.7 inactive; #2 87.4 inactive; #3 58.9 inactive
Ndc80: #1 121 active; #2 70.8 inactive; #3 104 inactive
Vps26c: #1 89.5 inactive; #2 83.5 inactive; #3 99.8 inactive
Prss35: #1 71.6 inactive; #2 101 inactive
Gnpda2: #1 85.8 inactive; #2 98 inactive; #3 81.5 inactive
Celf2: #1 82.1 inactive; #2 98.5 inactive; #3 79.8 inactive; #4 77.4 inactive; #5 85.1 inactive; #6 45.3 inactive
1700120K04Rik: #1 64.2 inactive; #2 46.7 inactive; #3 60.1 inactive
Oat: #1 84.8 inactive; #2 102 inactive; #3 84.3 inactive
Ms4a8a: #1 100 inactive; #2 80.2 inactive; #3 74.9 inactive
Mybphl: #1 80.2 inactive; #2 101 inactive; #3 65 inactive
Slc7a1: #1 63.8 inactive; #2 122 active; #3 55.4 inactive
Crh: #1 83.8 inactive; #2 107 inactive
Wdr74: #1 127 active; #2 77.2 inactive; #3 92.1 inactive
Ezr: #1 93.2 inactive; #2 77.9 inactive
Or52e4: #1 114 inactive; #2 121 active; #3 62.5 inactive

Individual results from the list:
Under “outcome”, Celf2 #3 has inactive
Result of Ndc80 #2 in “GFP, % of control”: 70.8
For “GFP, % of control”, Ms4a8a #3 is entered as 74.9
Under “GFP, % of control”, Or13c3 #2 shows 114
Wdr74 #3, GFP, % of control → 92.1
For “outcome”, Wdr74 #1 shows active

The listing continues:
GFP, % of control, by gene and reagent
Men1: #1 87.9 inactive; #2 159 active; #3 94.7 inactive
Ncaph: #1 105 inactive; #2 79.6 inactive; #3 123 active
Or5w13: #1 63.6 inactive; #2 40.1 inactive; #3 64.1 inactive
Art2a: #1 31.4 inactive; #2 65.5 inactive; #3 64.6 inactive
Osgin2: #1 37.8 inactive; #2 74.1 inactive; #3 130 active
1600012H06Rik: #1 59.3 inactive; #2 89 inactive; #3 74.5 inactive
Hsd3b2: #1 89.9 inactive; #2 98.6 inactive; #3 73.4 inactive
Dnmbp: #1 66.4 inactive; #2 117 inactive; #3 65.6 inactive
Nfkbia: #1 83.2 inactive; #2 122 active; #3 42 inactive
Taf1c: #1 60.5 inactive; #2 90.8 inactive; #3 130 active
